Common to all, as to format: functional
In one experiment the test system is Pseudomonas aeruginosa. Briefly: Antibacterial activity against Pseudomonas aeruginosa ATCC 9027 assessed as reduction in bacterial growth incubated for 24 hrs by broth microdilution assay. In outline:
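Twofold serial broth microdilution in Mueller-Hinton broth, supplemented with 5% lysed sheep blood for fastidious species. […]. Inoculum was set to 0.5 McFarland in 0.85% NaCl, giving a final 1.5 × 10⁶ CFU/mL. Plates were incubated 24 h at 35 °C. MIC was read visually as the lowest concentration with complete growth inhibition. Controls: 10% DMSO (final), growth and sterility. Triplicate.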
(In general: Broth dilution looks for growth in wells or tubes with falling amounts of substance.)

The test system of experiment [1] is Candida albicans. Briefly: Antifungal activity against Candida albicans ATCC […] assessed as reduction in fungal growth incubated for 48 hrs by broth microdilution assay. In outline:
(§1)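 Yeasts were tested by twofold broth microdilution in Mueller-Hinton broth with 2% glucose at final concentrations of 0.98–1000 µg/mL. Inoculum was prepared from 0.5 McFarland suspensions in 0.85% NaCl, giving a final 5 × 10⁴ CFU/mL. Incubation was 48 h at 30 °C. MIC was the lowest concentration visually showing complete growth inhibition. Controls: 10% DMSO (final), growth and sterility. Triplicate.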

The test system of experiment [2] is Candida albicans. Briefly: Antifungal activity against Candida albicans ATCC 2091 assessed as reduction in fungal growth incubated for 48 hrs by broth microdilution assay. In outline: as §1

Values after ≈ are worked out from the molar mass of the structure shown.

Broadly, the MIC is the smallest concentration in the dilution series that meets the test's criterion for growth inhibition. As to `O=C(O)c1cn(C2CC2)c2cc(N3CCNCC3)c(F)cc2c1=O` [CIPROFLOXACIN], the MIC with Pseudomonas aeruginosa is 0.49 µg/mL (≈ 1.48 µM). In the case of `OC(Cn1cncn1)(Cn1cncn1)c1ccc(F)cc1F` [FLUCONAZOLE], the MIC was 0.98 µg/mL (≈ 3.2 µM) in the experiment with Candida albicans [1] and 0.25 µg/mL (≈ 0.816 µM) in the experiment with Candida albicans [2].

The values above are taken from ChEMBL document CHEMBL4765265, “4-Substituted picolinohydrazonamides as a new class of potential antitubercular agents” (Eur J Med Chem, 2020).
